{"source": "patent US20230235082", "about": "(published 2023)", "assay": "general procedure: peptide synthesis; PyBOP", "conditions": "late stage modification step"}
{"substance": "Acid-Suc-MMAE", "values": [{"measurement": "step yield", "result": 77.4, "unit": "%"}]}
